Experimental data from PubChem BioAssay AID330 (DTP/NCI, 2004).
The list is a part of this screen's results and no random one: it is rich in T/C values a quarter to a half above the control, in often repeated tests (any T/C) and in doses without a T/C. Further doses and runs are listed elsewhere. T/C: endpoint of the treated group in % of that of the vehicle group. Some doses have a count of surviving animals in place of a T/C: the source files T/C as zero there, which appears to mark a toxic dose or a test without result, not a measured value. Some survivor counts are full or nearly so, which does not show that the dose was tolerated: the source hardly ever lists a survival T/C far under the control, and the zero likely stands for such cases as well. Counts of survivors are from the toxicity check (mostly the fifth day) where no day follows; animals may have died later. Schedules are NCI's codes, read here as Q, the interval in days (D) or hours (H), X, the number of doses. Some entries hold several experiments; the results are listed from low to high. For survival time, this PubChem deposit counts one and a half times the control or more as active, and values a quarter to a half above the control carry no call in these data; other NCI protocols may use other cut-offs.

Test system: P388 leukemia ip, CD2F1 mice, survival T/C
Test: NCI In Vivo Anticancer Drug Screen. Data for tumor model P388 Leukemia (intraperitoneal) in CD2F1 (CDF1) mice
Conditions: T/C endpoint: median survival time, higher T/C = longer survival
[1] = dose: 25.0 mg/kg/injection, schedule: Q01DX009 (ip), vehicle: saline
[2] = dose: 400.0 mg/kg/injection, schedule: Q04DX002 (ip), vehicle: Klucel (hydroxypropylcellulose) (HPC)
[3] = dose: 240.0 mg/kg/injection, schedule: Q01DX005 (ip), vehicle: saline with Tween-80
[4] = dose: 100.0 mg/kg/injection, schedule: Q01DX009 (ip), vehicle: saline with Tween-80
[5] = dose: 200.0 mg/kg/injection, schedule: Q01DX009 (ip), vehicle: saline with Tween-80
[6] = dose: 120.0 mg/kg/injection, schedule: Q01DX005 (ip), vehicle: saline with Tween-80
[7] = dose: 200.0 mg/kg/injection, schedule: Q01DX005 (ip), vehicle: Klucel (hydroxypropylcellulose) (HPC)
[8] = dose: 200.0 mg/kg/injection, schedule: Q01DX009 (ip), vehicle: saline
[9] = dose: 6.25 mg/kg/injection, schedule: Q01DX009 (ip), vehicle: saline
[10] = dose: 60.0 mg/kg/injection, schedule: Q01DX005 (ip), vehicle: saline with Tween-80
[11] = dose: 50.0 mg/kg/injection, schedule: Q01DX009 (ip), vehicle: saline with Tween-80

`CCN(CC)CCNC1=C(Cl)C(=O)c2ccccc2C1=O` was tested, and the survivor count (dose: 25.0 mg/kg/injection, schedule: Q01DX009 (ip), vehicle: distilled water + Tween-80) was 0 of 6, the survivor count [1] was 6 of 6 and the survivor count (dose: 50.0 mg/kg/injection, schedule: Q01DX009 (ip), vehicle: distilled water + Tween-80) was 0 of 6. For the same compound, the survivor count (dose: 100.0 mg/kg/injection, schedule: Q01DX009 (ip), vehicle: distilled water + Tween-80) was 0 of 6, the survivor count (dose: 200.0 mg/kg/injection, schedule: Q01DX009 (ip), vehicle: distilled water + Tween-80) was 0 of 6 and the survivor count (dose: 400.0 mg/kg/injection, schedule: Q01DX009 (ip), vehicle: distilled water + Tween-80) was 0 of 6.

In the case of `[Cu+2].[NH-]C(CCC(N)=O)C(=O)O.[NH-]C(CCC(N)=O)C(=O)O` (stereo not drawn), the survivor count (dose: 25.0 mg/kg/injection, schedule: Q04DX003 (ip), vehicle: saline) is reported as 3 of 6.

With `CC(=O)C(CSC(=O)c1ccccc1)C(C)=O` the survivor count [2] was 0 of 6.

With `O=C1c2ccccc2C(=O)C1(c1ccccn1)[N+](=O)[O-]` the survivor count [3] was 6 of 6.

For `C/C=C/c1cc(OC)c2c(c1)[C@H](C)C(c1ccc(O)c(OC)c1)O2` (stereo partly drawn), the survivor count (dose: 300.0 mg/kg/injection, schedule: Q01DX005 (ip), vehicle: Klucel (hydroxypropylcellulose) (HPC)) was 5 of 6.

For `Cc1cc(N(C)C)nc2cc(N(C)C)ccc12`, the survivor count [4] was 3 of 6 and the survivor count [5] was 3 of 6.

`S=C1NCC(c2ccc(Cl)cc2)[Se]1` (stereo not drawn) was tested, and the survivor count (dose: 200.0 mg/kg/injection, schedule: Q01DX009 (ip), vehicle: DMSO) was 2 of 6.

In the case of `N#Cc1ncn(Cc2ccccc2)c1N`, the survivor count [6] is reported as 3 of 6 and the survivor count [3] is reported as 2 of 6.

With `CC1CCC(C(C)C)/C(=N/NC(=O)c2cccnc2)C1` (stereo not drawn) the survivor count (dose: 100.0 mg/kg/injection, schedule: Q01DX005 (ip), vehicle: Klucel (hydroxypropylcellulose) (HPC)) was 1 of 6 and the survivor count [7] was 0 of 6.

`O=C(O)CC[n+]1cccc2c1C(=O)C(=O)c1ncccc1-2` was tested, and the survivor count (dose: 400.0 mg/kg/injection, schedule: Q04DX002 (ip), vehicle: saline) was 5 of 6.

With `CN(C)c1ccc(/C=C/c2ccc3ccccc3n2)cc1` the survivor count (dose: 200.0 mg/kg/injection, schedule: Q04DX003 (ip), vehicle: saline with Tween-80) was 6 of 6 and the survivor count (dose: 400.0 mg/kg/injection, schedule: Q04DX003 (ip), vehicle: saline with Tween-80) was 6 of 6.

For `Cc1nn(C(=O)c2ccccn2)c(-c2ccccc2)c1N=Nc1ccc(S(=O)(=O)Nc2ncccn2)cc1`, the survivor count [3] was 3 of 6.

For `Nc1nc2c(c(-c3nc(N)nc4c3Cc3ccccc3-4)n1)Cc1ccccc1-2`, the survivor count [3] was 2 of 6.

In the case of `[Br][Sn]([CH2]CC[CH2][Sn]([Br])([c]1ccccc1)[c]1ccccc1)([c]1ccccc1)[c]1ccccc1`, the survivor count [7] is reported as 4 of 6.

For `CCCCCCCCCCCCCCCCCC[N+]1([O-])CCOCC1`, the survivor count [8] was 0 of 6.

`[CH3][Sn]([CH3])([Cl])[CH2]CC[CH2][Ge]([Cl])([Cl])[Cl]` was tested, and the T/C (dose: 3.12 mg/kg/injection, schedule: Q01DX009 (ip), vehicle: saline) was 138 % of control, the T/C [9] was 133 % of control and the survivor count [9] was 0 of 6. The survivor count (dose: 12.5 mg/kg/injection, schedule: Q01DX009 (ip), vehicle: saline) was 4 of 6, the survivor count [1] was 1 of 6 and the survivor count (dose: 50.0 mg/kg/injection, schedule: Q01DX009 (ip), vehicle: saline) was 0 of 6. The survivor count (dose: 100.0 mg/kg/injection, schedule: Q01DX009 (ip), vehicle: saline) was 0 of 6 and the survivor count [8] was 0 of 6.

For `C#CCSC1=NS(=O)(=O)c2ccccc21`, the survivor count [10] was 4 of 6, the survivor count [6] was 0 of 6 and 6 of 6 and the survivor count [3] was 0 of 6.

With `CCCCCCCCCCCCCCCC(=O)N1CCN(C)CC1` the survivor count [11] was 3 of 6 and the survivor count [4] was 5 of 6.

For `O=C1OCCC1C(=O)C(O)(C(F)(F)F)C(F)(F)F` (stereo not drawn), the survivor count (dose: 400.0 mg/kg/injection, schedule: Q01DX001 (ip), vehicle: other) was 0 of 6.

For `Cc1cc(NCCCCNCCCNc2cc(C)nc3cc(N)ccc23)c2ccc(N)cc2n1`, the T/C (dose: 6.25 mg/kg/injection, schedule: Q01DX009 (ip), vehicle: other) was 132 % of control, the survivor count (dose: 50.0 mg/kg/injection, schedule: Q01DX009 (ip), vehicle: other) was 0 of 6 and the survivor count (dose: 100.0 mg/kg/injection, schedule: Q01DX009 (ip), vehicle: other) was 0 of 6.

`NC(CCl)=NCCOC12CC3CC(CC(C3)C1)C2` was tested, and the survivor count (dose: 120.0 mg/kg/injection, schedule: Q01DX005 (ip), vehicle: saline) was 3 of 6 and the survivor count (dose: 240.0 mg/kg/injection, schedule: Q01DX005 (ip), vehicle: saline) was 0 of 6.

In the case of `CC1CC(C)S(=O)CS1` (stereo not drawn), the survivor count (dose: 400.0 mg/kg/injection, schedule: Q04DX002 (ip), vehicle: saline with Tween-80) is reported as 0 of 6.

With `C[n+]1c(-c2cccc(OCCCCCCCOc3cccc(-c4c5cc(N)ccc5c5ccc(N)cc5[n+]4C)c3)c2)c2cc(N)ccc2c2ccc(N)cc21` the T/C (dose: 0.1 mg/kg/injection, schedule: Q01DX009 (ip), vehicle: water) was 133 % of control, the T/C (dose: 0.2 mg/kg/injection, schedule: Q01DX009 (ip), vehicle: water) was 140 % of control and the survivor count (dose: 0.4 mg/kg/injection, schedule: Q01DX009 (ip), vehicle: water) was 6 of 6. For the same compound, the survivor count (dose: 0.8 mg/kg/injection, schedule: Q01DX009 (ip), vehicle: water) was 6 of 6, the survivor count (dose: 1.56 mg/kg/injection, schedule: Q01DX009 (ip), vehicle: water) was 5 of 6 and the survivor count (dose: 3.13 mg/kg/injection, schedule: Q01DX009 (ip), vehicle: water) was 0 of 6. For the same compound, the survivor count (dose: 6.25 mg/kg/injection, schedule: Q01DX009 (ip), vehicle: water) was 0 of 6, the survivor count (dose: 12.5 mg/kg/injection, schedule: Q01DX009 (ip), vehicle: water) was 0 of 6 and the survivor count (dose: 25.0 mg/kg/injection, schedule: Q01DX009 (ip), vehicle: water) was 0 of 6. The survivor count (dose: 400.0 micrograms/kg/injection, schedule: Q01DX009 (ip), vehicle: water) was 6 of 6.

For `CCCCCCCC[N+]1([O-])CCCCC1`, the survivor count [8] was 0 of 6.

For `CS(=O)(=O)OCC(COS(C)(=O)=O)(COS(C)(=O)=O)COS(C)(=O)=O`, the survivor count (dose: 400.0 mg/kg/injection, schedule: Q01DX009 (ip), vehicle: Klucel (hydroxypropylcellulose) (HPC)) was 6 of 6.

For `Cc1cc(C)c(N)c(Br)c1`, the survivor count (dose: 100.0 mg/kg/injection, schedule: Q04DX003 (ip), vehicle: other) was 3 of 6.

With `CC(Nc1ccc(S(=O)(=O)Nc2ncccn2)cc1)c1ccc2cccnc2c1O` (stereo not drawn) the survivor count (dose: 400.0 mg/kg/injection, schedule: Q01DX001 (ip), vehicle: saline with Tween-80) was 0 of 6.

`O=C(CCSSCCC(=O)ON1C(=O)CCC1=O)ON1C(=O)CCC1=O` was tested, and the survivor count [11] was 6 of 6, the survivor count [4] was 6 of 6 and the survivor count [5] was 6 of 6.

`CN1Cc2c(cc(CN3CCCCC3)n2C)C(c2ccc(Br)cc2)C1` (stereo not drawn) was tested, and the survivor count [10] was 3 of 6, the survivor count [6] was 1 of 6 and the survivor count [3] was 0 of 6.

With `CCOc1c(-c2ccccc2)c(=O)n2c3ccccc3n(CC)c2c1C#N` the survivor count [10] was 6 of 6 and the survivor count [6] was 6 of 6.

With `FC(F)(F)C1(C(F)(F)F)OI(Cl)c2ccccc21` the survivor count (dose: 100.0 mg/kg/injection, schedule: Q04DX002 (ip), vehicle: Klucel (hydroxypropylcellulose) (HPC)) was 6 of 6, the survivor count (dose: 200.0 mg/kg/injection, schedule: Q04DX002 (ip), vehicle: Klucel (hydroxypropylcellulose) (HPC)) was 5 of 6 and the survivor count [2] was 2 of 6.

`CCOCN(COCC)c1ccccn1` was tested, and the T/C [4] was 125 and 130 % of control and the survivor count [5] was 2 of 6 and 4 of 6.

For `CC1CCC(=O)CN1Cc1ccccc1` (stereo not drawn), the survivor count (dose: 200.0 mg/kg/injection, schedule: Q01DX005 (ip), vehicle: saline with Tween-80) was 3 of 6.

`O=C1C=C(C2=C(O)c3ccccc3C2=O)c2ccccc21` (tested in a mixture with another compound) was tested, and the survivor count (dose: 200.0 mg/kg/injection, schedule: Q01DX009 (ip), vehicle: Klucel (hydroxypropylcellulose) (HPC)) was 0 of 6.
